Source: patent publication US8518459B2, “Composition for regulating lipid metabolism” (Actigenomics S.A., priority 2009, dated 2013)

Experiment: Food intake of mice on cholesterol-enriched diet
Assay type: in vivo, C57bl6J male mice
Conditions: per mouse after 12 weeks of treatment

Structure (SMILES): CC(C)c1c(C(=O)Nc2ccccc2)c(-c2ccccc2)c(-c2ccc(F)cc2)n1CC[C@@H](O)C[C@@H](O)CC(=O)O [atorvastatin]
- Cumulative food intake (FIG. 4): 229 g
